Measurements published in article PMC11253546, “Fidelity in plant hormone modifications catalyzed by Arabidopsis GH3 acyl acid amido synthetases” (The Journal of Biological Chemistry, 2024).
No constants are given. Whether binding was seen depends on the method and setting.

Tests used:
Assay in all cases: SEC; Superdex-75 26/60 HiLoad column, 50 mM Tris (pH 8.0), 100 mM NaCl; elution after Ni-NTA; both purified
[1] = target: GH3-N2/C5 chimera (N-terminal domain of AtGH3.2/YDK2 and C-terminal domain of AtGH3.5/WES1) (Arabidopsis thaliana) (UniProt Q9SZT9+O81829)
[2] = target: GH3-N5/C2 chimera (N-terminal domain of AtGH3.5/WES1 and C-terminal domain of AtGH3.2/YDK2) (Arabidopsis thaliana) (UniProt O81829+Q9SZT9)
[3] = target: AtGH3.2/YDK2 (Arabidopsis thaliana) (UniProt Q9SZT9)
[4] = target: AtGH3.5/WES1 (Arabidopsis thaliana) (UniProt O81829)

B1: GH3-N2/C5 chimera (N-terminal domain of AtGH3.2/YDK2 and C-terminal domain of AtGH3.5/WES1) (enzyme, UniProt Q9SZT9 1-442; O81829 450-608)
chain: MAVDSPLQSRMVSATTSEKDVKALKFIEEMTRNPDSVQEKVLGEILTRNSNTEYLKRFDLDGVVDRKTFKSKVPVVTYEDLKPEIQRISNGDCSPILSSHPITEFLTSSGTSAGERKLMPTIEEDLDRRQLLYSLLMPVMNLYVPGLDKGKGLYFLFVKSESKTSGGLPARPVLTSYYKSDHFKRRPYDPYNVYTSPNEAILCSDSSQSMYAQMLCGLLMRHEVLRLGAVFASGLLRAISFLQNNWKELARDISTGTLSSRIFDPAIKNRMSKILTKPDQELAEFLVGVCSQENWEGIITKIWPNTKYLDVIVTGAMAQYIPTLEYYSGGLPMACTMYASSESYFGINLKPMCKPSEVSYTIMPNMAYFEFLPHNHDGDGAAEASLDETSLVELANVEVGKEYELVITTYAGLYRYRVGDILRVTGFHNSAPQFKFIRRKNVVLSIDSDKTDEVELQNAVKNAVTHLVPFDASLSEYTSYADTSSIPGHYVLFWELCLDGNTPIPPSVFEDCCLAVEESFNTVYRQGRVSDKSIGPLEIKIVEPGTFDKLMDYAISLGASINQYKTPRCVKFAPIIELLNSRVVDSYFSPKCPKWVPGHKQ
Which binding [1] does the source give for B1 here?
The binding was “no binding”.

B2: GH3-N5/C2 chimera (N-terminal domain of AtGH3.5/WES1 and C-terminal domain of AtGH3.2/YDK2) (enzyme, UniProt O81829 1-449; Q9SZT9 443-549)
chain: MPEAPKKESLEVFDLTLDQKNKQKLQLIEELTSNADQVQRQVLEEILTRNADVEYLRRHDLNGRTDRETFKNIMPVITYEDIEPEINRIANGDKSPILSSKPISEFLTSSGTSGGERKLMPTIEEELDRRSLLYSLLMPVMSQFVPGLENGKGMYFLFIKSESKTPGGLPARPVLTSYYKSSHFKERPYDPYTNYTSPNETILCSDSYQSMYSQMLCGLCQHQEVLRVGAVFASGFIRAIKFLEKHWIELVRDIRTGTLSSLITDPSVREAVAKILKPSPKLADFVEFECKKSSWQGIITRLWPNTKYVDVIVTGTMSQYIPTLDYYSNGLPLVCTMYASSECYFGVNLRPLCKPSEVSYTLIPSMAYFEFLPVHRNNGVTNSINLPKALTEKEQQELVDLVDVKLGQEYELVVTTYAGLCRYRVGDLLRVTGFKNKAPQFSFICRKNVLLSVESDKTDEAELQKAVENASRLFAEQGTRVIEYTSYAETKTIPGHYVIYWELLGRDQSNALMSEEVMAKCCLEMEESLNSVYRQSRVADKSIGPLGDTCGTERYV
With B2 as the binder, how does the binding [2] read?
Its binding is “no binding”.

B3: AtGH3.2/YDK2 (enzyme, UniProt Q9SZT9 1-549)
chain: MAVDSPLQSRMVSATTSEKDVKALKFIEEMTRNPDSVQEKVLGEILTRNSNTEYLKRFDLDGVVDRKTFKSKVPVVTYEDLKPEIQRISNGDCSPILSSHPITEFLTSSGTSAGERKLMPTIEEDLDRRQLLYSLLMPVMNLYVPGLDKGKGLYFLFVKSESKTSGGLPARPVLTSYYKSDHFKRRPYDPYNVYTSPNEAILCSDSSQSMYAQMLCGLLMRHEVLRLGAVFASGLLRAISFLQNNWKELARDISTGTLSSRIFDPAIKNRMSKILTKPDQELAEFLVGVCSQENWEGIITKIWPNTKYLDVIVTGAMAQYIPTLEYYSGGLPMACTMYASSESYFGINLKPMCKPSEVSYTIMPNMAYFEFLPHNHDGDGAAEASLDETSLVELANVEVGKEYELVITTYAGLYRYRVGDILRVTGFHNSAPQFKFIRRKNVLLSVESDKTDEAELQKAVENASRLFAEQGTRVIEYTSYAETKTIPGHYVIYWELLGRDQSNALMSEEVMAKCCLEMEESLNSVYRQSRVADKSIGPLGDTCGTERYV
How did the binding [3] turn out when B3 was run?
The binding was “no binding”.

B4: AtGH3.5/WES1 (enzyme, UniProt O81829 1-612)
chain: MPEAPKKESLEVFDLTLDQKNKQKLQLIEELTSNADQVQRQVLEEILTRNADVEYLRRHDLNGRTDRETFKNIMPVITYEDIEPEINRIANGDKSPILSSKPISEFLTSSGTSGGERKLMPTIEEELDRRSLLYSLLMPVMSQFVPGLENGKGMYFLFIKSESKTPGGLPARPVLTSYYKSSHFKERPYDPYTNYTSPNETILCSDSYQSMYSQMLCGLCQHQEVLRVGAVFASGFIRAIKFLEKHWIELVRDIRTGTLSSLITDPSVREAVAKILKPSPKLADFVEFECKKSSWQGIITRLWPNTKYVDVIVTGTMSQYIPTLDYYSNGLPLVCTMYASSECYFGVNLRPLCKPSEVSYTLIPSMAYFEFLPVHRNNGVTNSINLPKALTEKEQQELVDLVDVKLGQEYELVVTTYAGLCRYRVGDLLRVTGFKNKAPQFSFICRKNVVLSIDSDKTDEVELQNAVKNAVTHLVPFDASLSEYTSYADTSSIPGHYVLFWELCLDGNTPIPPSVFEDCCLAVEESFNTVYRQGRVSDKSIGPLEIKIVEPGTFDKLMDYAISLGASINQYKTPRCVKFAPIIELLNSRVVDSYFSPKCPKWVPGHKQWGSN
How did the binding [4] turn out when B4 was run?
Its binding is “no binding”.
